# Results taken from US20250332176A1, “TREATMENT FOR FIBROSIS AND INHIBITION OF FIBROSIS” (GALMED RESEARCH AND DEVELOPMENT LTD, priority 2022, published 2025).
# For part of these data: The name of at least one read-out is uncertain. For part of these data: At least one compound was matched to its structure with a doubt left.
# Legend:
# Wistar rats = assay: Thioacetamide (TAA)-induced fibrosis, model for hepatic cirrhosis; assay type: in vivo; settings: 5 mg/kg, co-administered with TAA during 10 weeks
# Method: Liver fibrosis was induced in Wistar rats by intraperitoneal injections of TAA (20 mg/100 gr body weight) twice per week during 10 weeks. I.p. application of TAA results in hepatic centrolobular necrosis, elevated transaminase activity and robust liver fibrosis. Treatment groups further included co-administration of Aramchol™ (1 or 5 mg/kg orally) or obaticholic acid (OCA, 5 mg/kg). A control group of saline-treated rats (in the absence of TAA administration) was further included. Rats were then sacrificed, and livers were observed macroscopically for signs of cirrhosis and necrotic lesions, and microscopically, following Masson Goldner staining. The fibrosis score, calculated at a scale of 0-4, was determined for each sample, wherein 0 indicates no fibrosis and 4 indicates advanced fibrosis and cirrhosis.
# [1] = Modelling and simulation of 300 mg BID and 600 mg QD doses in patients (Phoenix 64, single compartment); set-up: species or system human; settings: assuming same non-linearity as in healthy volunteers
# Method: Given the sub-proportional exposure generally seen, splitting the same total daily dose into two BID doses is likely to increase plasma AUC. The aim of this analysis was to model this behavior.
# The 300 mg data on day 1 and day 84 in patients (Phase 2 ARAMCHOL™ 003) has been modelled in Phoenix 64@ assuming single compartment pharmacokinetics (parameterized by Cl and V) and first order absorption at a rate Ka with a delay, Tlag. The fitted model parameters all have a CV<25% and the predicted concentration data reasonably capture the observed data as shown in FIGS. 13A-13C.
# To predict exposure at 600 mg, a correction for sub-proportional PK (lower bioavailability at higher dose) has been made assuming the same non-linearity at observed in healthy volunteers.
SMILES,development of necrosis and cirrhosis (macroscopic) (Wistar rats),fibrotic score and collagen distribution in the tissue (Masson Goldner staining) (Wistar rats; score scale 0-4),relative bioavailability [1]
"CC[C@H]1[C@@H](O)[C@@H]2[C@H](CC[C@]3(C)[C@@H]([C@H](C)CCC(=O)O)CC[C@@H]23)[C@@]2(C)CC[C@@H](O)C[C@@H]12 [OCA, obaticholic acid, reference compound]",did not induce statistically significant reduction,did not induce statistically significant reduction,
"CCCCCCCCCCCCCCCCCCCC(=O)N[C@H]1CC[C@@]2(C)[C@@H](C1)C[C@@H](O)[C@@H]1[C@@H]2C[C@H](O)[C@]2(C)[C@@H]([C@H](C)CCC(=O)O)CC[C@@H]12 [Aramchol™, 3β-arachidylamido-7α, 12α-dihydroxy-5β-cholan-24-oic acid]",,,ca. 0.4
